In PubChem BioAssay AID602441 (National Center for Advancing Translational Sciences (NCATS), 2012):
Screen size: about 1,300 compounds; fewer than 10 were called active. Not shown: some 9% with an inconclusive outcome. Calls come from the whole dose curve; as a rule, active = well fitted curve in the direction sought with a large enough effect; inconclusive = small, poorly fitted or top-dose-only effect, or another doubt; inactive = no such curve, though single readings can be large or run the other way. The list shows a part of the results.

Assay: qHTS for antagonists of the Thyroid Stimulation Hormone Receptor: Hit Validation in Parental Cell Line; note: 0% is about no effect
Details: parental HEK293 cells lacking TSHR, counter-screen; series mostly up to 56.9 µM; activity change, negative = inhibition: at the top concentration
Outline: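 Counterscreen in untransfected parental HEK-EM 293 cells. Lysate cAMP displaces cAMP-d2 from cryptate-tagged anti-cAMP antibody, and homogeneous TR-FRET is read at 665 nm with 337 nm excitation after stimulation.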

SMILES	activity change, negative = inhibition
CCN(CC)S(=O)(=O)c1cccc(C(=O)Nc2nc3cc4c(cc3s2)OCCO4)c1	inactive: -8.5%
CSc1nc(-c2ccc(Cl)cc2Cl)[nH]c(=O)c1C#N	inactive: 4.62%
COc1ccc(CCNC(=O)c2ccc(Cl)c(S(=O)(=O)N3CCCCCC3)c2)cc1	inactive: -4.19%
CC1CCN(c2ccccc2NC(=O)c2cc([N+](=O)[O-])ccc2N2CCOCC2)CC1	inactive: -2.88%
N#Cc1c(SCc2c(Cl)cccc2Cl)nc(N)[nH]c1=S	inactive: 1.4%
CC(=O)N1c2ccc(S(=O)(=O)NCCC(=O)Nc3cccc(Cl)c3)cc2CC1C (stereo not given)	inactive: 2.87%
O=C1c2cccnc2C(=O)N1Cc1ccc(S(=O)(=O)N2CCN(c3ccc(Cl)cc3)CC2)cc1	inactive: 2.04%
Cc1ccc(CNC(=O)CCNC(=O)N2CCn3c2nc2ccccc23)cc1	inactive: 0.477%
Cc1nc2ccccc2n1CCOc1ccccc1	inactive: 0.231%
C[C@@H](NC(=O)[C@@H]1Cc2ccccc2CN1)C(=O)NC1CCCCC1	inactive: 2.93%
O=C(OCn1ncc(Cl)c(Cl)c1=O)c1cccc(C(F)(F)F)c1	inactive: 1.4%
CCc1ccc(N/C(SCc2cccc(F)c2)=C(/C#N)C(=O)NCc2ccco2)cc1	inactive: 1.73%
CC(=O)Oc1c(C)cc(Cl)cc1C(=O)Nc1ccc([N+](=O)[O-])cc1Cl	inactive: -8.76%
COc1ccc(-c2cc(-c3ccccc3)c(C#N)c(S(C)=O)n2)cc1 (stereo not given)	inactive: -7.49%
COc1cccc(C(=O)/C=C/Nc2ccc(S(=O)(=O)Nc3cccc(C(C)=O)c3)cc2)c1	inactive: -5.83%
Brc1cc2c(cc1/C=N/Nc1nc(N3CCOCC3)nc(N3CCOCC3)n1)OCO2	inactive: -2.06%
CCc1ccc(-c2nnn(CCC(=O)OC)n2)cc1	inactive: 3.61%
Cc1ncsc1CCOC(=O)C1C2CC3CC(C2)CC1C3 (stereo not given)	inactive: 1.06%
Cc1ccc(CN2C(=O)c3ccccc3Sc3ccc(C(=O)NCCN4CCOCC4)cc32)cc1	inactive: -2.87%
Cc1noc(C)c1COc1ccccc1C(=O)N(C)Cc1ccc(C(C)(C)C)cc1	inactive: -3.32%
Cc1n[nH]c(C)c1S(=O)(=O)N1CCCC(C(=O)N2CCN(c3ccc(Cl)cc3)CC2)C1 (stereo not given)	inactive: -6.59%
CCc1cc(CNC(=O)CC2C(=O)NCCN2Cc2ccc(-c3ccccc3)cc2)on1 (stereo not given)	inactive: -4.34%
O=C(COc1ccc(Cl)cc1Cl)Nc1ccc(C(=O)Nc2ccccc2C(=O)O)cc1	inactive: -4.74%
O=C(Nc1nc(-c2cccs2)c(-c2cccs2)s1)C1CCCC1	inactive: -9.24%
O=C(Nc1nnc(C2CC2)s1)c1ccc(Cl)c(S(=O)(=O)N2CCc3ccccc3C2)c1	inactive: -3.57%
CN(c1cccc(Cl)c1)S(=O)(=O)c1cccc(C(=O)NCc2ccncc2)c1	inactive: -0.775%
Cc1cc(C)cc(N=C2NC(=O)CS2)c1	inactive: 4.6%

SMILES	activity change, negative = inhibition
O=C(OCn1ncc(Cl)c(Cl)c1=O)c1ccccc1Cl	inactive: 0.959%
Cc1ccc(C(=O)Nc2nc(-c3ccc(F)cc3)cs2)o1	inactive: -5.7%
Cc1ccc(-n2c(Cl)c(Cl)nc(Cl)c2=O)cc1	inactive: -20.4%
Cc1ccc(S(=O)(=O)N2CCN(C(=O)CCn3cncn3)CC2)cc1	inactive: 3.02%
CC(=O)c1c(O)cc(O)c(C(C)=O)c1O	inactive: 2.98%
C=CCOc1c(Cl)cc(CNc2ccc(N(C)C)cc2)cc1OC	inactive: -3.21%
Cc1ccc(S(=O)(=O)NCCNS(=O)(=O)c2ccc(C)cc2)cc1	inactive: 3.85%
O=C1c2cccc3c(O)ccc(c23)C(=O)N1c1ccc(Cl)cc1	inactive: -7.04%
COc1ccc(N2CCN(C(=O)[C@H](C)NC(=O)c3ccccc3Cl)CC2)cc1	inactive: 2.13%
O=C(CCc1ccccc1)N1CCN(Cc2ccc(F)cc2Cl)CC1	inactive: 3.3%
CCOC(=O)C1C(c2cc(OC)c(OC)c(OC)c2)NC(=S)NC1(O)C(F)(F)F (stereo not given)	inactive: 1.29%
O=C(Nc1ccc2c(c1)CCC2)c1cc(S(=O)(=O)Nc2ccc(F)cc2)c(Cl)cc1Cl	inactive: -1.68%
COC(=O)c1ccc(NC(=O)c2ccccc2)o1	inactive: 1.14%
O=C(Nc1ccccc1C(=O)N1CCN(c2cccc(Cl)c2)CC1)C1=CSCCO1	inactive: -6.98%
Cc1ccc(/C=N/n2c(COc3ccccc3)n[nH]c2=S)s1	inactive: 0.814%
CC(NC(=O)c1cccs1)C(S)c1ccccc1 (stereo not given)	inactive: 1.86%
Cc1cccc(C)c1NC(=O)N1CCC(C(=O)c2ccc(F)cc2)CC1	inactive: 3.4%
CC1=CCC2C(=O)N(c3ccc(C(=O)Nc4ccccc4Cl)cc3)C(=O)C2C1 (stereo not given)	inactive: 5.26%
COc1ccc(NC(=O)CSc2nc3[nH]c(=O)[nH]c(=O)c3s2)cc1OC	inactive: 4.98%
Cc1ccc(CCNC(=O)C2CCN(S(=O)(=O)c3cccc4cccnc34)CC2)cc1	inactive: -2.15%
CCCCCCCC[n+]1cccc2c3ccccc3ccc21	inactive: -12.3%
Clc1ccccc1CN(Cc1ccccc1)c1ncnc2nc[nH]c12	inactive: 2.66%
O=[N+]([O-])c1ccc(NC(=S)NCCc2ccc(F)cc2)cc1	inactive: -7.64%
CC(=O)N1CCc2cc(Br)cc(S(=O)(=O)N3CCC(C(=O)O)CC3)c21	inactive: -1.36%
O=C(c1ccco1)N1CCN(Cc2csc(-c3ccccc3Cl)n2)CC1	inactive: 3.66%
COC(=O)c1cc(=O)n(-c2c(Cl)cc(C(F)(F)F)cc2Cl)[nH]1	inactive: 2.2%
Cc1cccc(CSc2nc3ccccc3c(=O)n2C)c1	inactive: 1.25%

6 compounds out of the list, ordered by count of non-hydrogen atoms, ascending.
SMILES	activity change, negative = inhibition
COC(=O)c1cc(=O)n(-c2c(Cl)cc(C(F)(F)F)cc2Cl)[nH]1	inactive: 2.2%
C=CCOc1c(Cl)cc(CNc2ccc(N(C)C)cc2)cc1OC	inactive: -3.21%
COc1ccc(NC(=O)CSc2nc3[nH]c(=O)[nH]c(=O)c3s2)cc1OC	inactive: 4.98%
CC1=CCC2C(=O)N(c3ccc(C(=O)Nc4ccccc4Cl)cc3)C(=O)C2C1 (stereo not given)	inactive: 5.26%
CC(=O)N1c2ccc(S(=O)(=O)NCCC(=O)Nc3cccc(Cl)c3)cc2CC1C (stereo not given)	inactive: 2.87%
CCc1ccc(N/C(SCc2cccc(F)c2)=C(/C#N)C(=O)NCc2ccco2)cc1	inactive: 1.73%

More results follow:

SMILES	activity change, negative = inhibition
O=C(NCc1ccc(F)cc1)c1ccncc1	inactive: 4.26%
CC1CCCN(S(=O)(=O)c2csc(C(N)=O)c2)C1 (stereo not given)	inactive: 2.8%
CC1=C(OC(=O)c2ccccc2)C(C)(C)C(c2ccccc2)OC1=O (stereo not given)	inactive: 3.91%
COc1ccc(N(CC(=O)Nc2cc(Cl)ccc2OC)S(=O)(=O)c2c(C)noc2C)cc1	inactive: -5.89%
CCN(CC)S(=O)(=O)c1cc(NC(=O)C2CCN(c3ncnc4sc(C)c(C)c34)CC2)ccc1Cl	inactive: -9.16%
Nc1nc2nc(-c3ccccc3)cc(C(F)(F)F)c2s1	inactive: 0.263%
CN(C)c1ccc(NC(=O)C2C3C=CC(C3)C2C(=O)O)cc1 (stereo not given)	inactive: 2.5%
N#CC(C#N)=NNc1ccc(S(=O)(=O)N2CCCCC2)cc1	inactive: -1.81%
COc1ccc(CNC(=O)CCS(=O)(=O)c2ccc3c(c2)CCN3C(C)=O)cc1	inactive: -0.187%
COc1ccc(-c2nnc(NC(=O)c3ccc(S(=O)(=O)N4CCCc5ccccc54)cc3)o2)cc1	inactive: -3.26%
CCCCn1c(-c2c(Cl)c(C)nn2C)n[nH]c1=S	inactive: 4.8%
COc1cc(C(C)=O)ccc1OCC(=O)Nc1ccc(Cl)c(S(=O)(=O)N2CCOCC2)c1	inactive: -0.886%
COC(=O)c1ccc(NC(=O)Nc2ccc(F)c(Cl)c2)cc1	inactive: -15.1%
O=C(Nc1cccc(S(=O)(=O)Nc2ccc(Cl)cc2)c1)c1ccc2c(c1)OCCO2	inactive: -4.6%
Nc1nnc(COc2ccc(Br)cc2Br)s1	inactive: 0.805%
CCCCOc1ncnc2c1[nH]c1ccccc12	inactive: -1.3%
O=C(c1ccc2c(=O)n(Cc3ccc4c(c3)OCO4)c(=S)[nH]c2c1)N1CCCCC1	inactive: 0.825%
O=C(c1ccc(Cl)c(S(=O)(=O)N2CCCCC2)c1)N1CCCC1	inactive: 4.01%
CCOc1ccc(CN(C)c2ccc(S(=O)(=O)N3CCN(C)CC3)cc2[N+](=O)[O-])cc1OC	inactive: -0.457%
O=C(Nc1ccc(Cl)cc1)c1cc2c(cc1O)[nH]c1ccccc12	inactive: -4.56%
CCn1c(=NC(=O)CSC(C)=O)sc2cc(OC)ccc21	inactive: -3.82%
Cc1onc(-c2ccccc2Cl)c1C(=O)NC(=S)Nc1ccc(C(C)(C)C)cc1	inactive: 3.45%
COc1ccc(-c2csc(NC(=O)C3=NN(c4ccccc4)C(=O)CC3)n2)cc1	inactive: -11.8%
CCOc1ncccc1C(=O)Nc1ccc(C)c(S(=O)(=O)N2CCCCCC2)c1	inactive: 0.155%
Cc1cc(OCc2cc(C(=O)NCc3csc(C(C)C)n3)no2)cc(C)c1Cl	inactive: 1.46%
CC(C)Oc1ccc(C(=O)NCCNC(=O)c2ccco2)cc1	inactive: 2.15%
Cc1onc(-c2c(Cl)cccc2Cl)c1C(=O)N1CCc2ccccc2C1	inactive: 2.21%

SMILES	activity change, negative = inhibition
COc1ccc(CNC(=O)CCS(=O)(=O)c2cc3c(cc2Cl)NC(=O)CO3)cc1	inactive: 4.46%
COC(=O)c1ccc(/C(O)=C(\C#N)c2nc3ccccc3s2)cc1	inactive: -6.58%
CC(C)C1Nc2ccc(C(=O)N3CCN(c4ccccn4)CC3)cc2NC1=O (stereo not given)	inactive: -1.11%
Cc1ccccc1NC(=O)C1(C)Cc2ccccc2C(=O)O1 (stereo not given)	inactive: 5.12%
Cc1cccc(/C=C/C(=O)c2cc(Br)ccc(=O)c2O)c1	inactive: -2.48%
CC(C)CN=Cc1c(O)c([N+](=O)[O-])cc2oc3c(c12)CCCC3	inactive: 4.79%
COc1cccc(-c2nc(-c3ccc(NC(=O)c4cccnc4)cc3)no2)c1	inactive: 3.12%
COc1ccc(/C=C/C(=O)Nc2nc(C)cc(C)n2)cc1OC	inactive: -0.446%
CC(C)(CNC(=O)C1c2ccccc2-c2ccccc21)N1CCOCC1	inactive: 6.31%
CN1C(=O)/C(=C/c2ccc(OCc3ccccc3F)cc2)NC1=S	inactive: 5.55%
CS(=O)c1ccc(-n2c(=O)n(Cc3ccccc3)c(=O)c3[nH]cnc32)cc1 (stereo not given)	inactive: 3.25%
CCN(Cc1ccccc1)c1ccc(/C=C(\C#N)c2ccccn2)cc1	inactive: 1.81%
CCCCNC(=O)c1sc(=S)n2c1[nH]c(=O)c1ccccc12	inactive: -7.94%
COc1ccc(-n2nc(C(=O)NCC(=O)Nc3cc(OC)c(OC)c(OC)c3)c3ccccc3c2=O)cc1OC	inactive: 16.2%
CC(C)(C)c1ccc(C(=O)CC(Sc2ccc(Cl)cc2)C(=O)O)cc1 (stereo not given)	inactive: -1.68%
CCCC(=O)Nc1cccn(Cc2ccccc2Br)c1=O	inactive: -0.796%
N#C/C(=N\Nc1ccc(Cl)c(Cl)c1)C(=O)C1CC1	inactive: -0.512%
Cc1cc(C(=O)CSc2nc3ccccc3[nH]2)c(C)n1CC1CCCO1 (stereo not given)	inactive: -7.85%
COc1ccccc1-n1cnc2cc(NS(=O)(=O)c3ccc(Br)cc3)ccc21	inactive: 1.75%
O=C(CC1S/C(=N/N=C2CCCCCC2)NC1=O)Nc1ccc(Br)cc1F (stereo not given)	inactive: 0.642%
O=C(Nc1cc(S(=O)(=O)N2CCCCC2)ccc1Cl)c1ccccc1NS(=O)(=O)c1ccc(F)cc1	inactive: -0.704%
CCOC(=O)C1(CCOc2ccccc2)CCN(Cc2cccc(OC)c2O)CC1	inactive: 2.62%
CC(C)Cc1ccc(C(C)C(=O)Nc2nccs2)cc1 (stereo not given)	inactive: -2.22%
O=C(Nc1ccc(SC(F)F)cc1)c1ccc2c(=O)n3c(nc2c1)CCC3	inactive: -4.94%
